# Screening data, single-dose tests

Protein sequences, listed by entry. Tags and fused reporters are not part of them. Residues count along the entry.
UniProt P9WNZ1, whole entry: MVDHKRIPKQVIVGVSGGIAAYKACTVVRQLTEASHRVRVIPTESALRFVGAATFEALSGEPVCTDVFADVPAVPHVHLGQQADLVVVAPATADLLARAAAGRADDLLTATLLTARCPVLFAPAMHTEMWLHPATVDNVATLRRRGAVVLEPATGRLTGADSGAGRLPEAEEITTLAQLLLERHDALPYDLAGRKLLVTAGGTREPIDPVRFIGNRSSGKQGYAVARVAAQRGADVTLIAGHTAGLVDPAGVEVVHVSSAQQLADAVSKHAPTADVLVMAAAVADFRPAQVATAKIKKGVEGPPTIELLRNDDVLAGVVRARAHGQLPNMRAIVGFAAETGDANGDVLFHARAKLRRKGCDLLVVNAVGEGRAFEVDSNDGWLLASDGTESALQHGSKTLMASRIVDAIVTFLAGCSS
UniProt A4I591, 1-473: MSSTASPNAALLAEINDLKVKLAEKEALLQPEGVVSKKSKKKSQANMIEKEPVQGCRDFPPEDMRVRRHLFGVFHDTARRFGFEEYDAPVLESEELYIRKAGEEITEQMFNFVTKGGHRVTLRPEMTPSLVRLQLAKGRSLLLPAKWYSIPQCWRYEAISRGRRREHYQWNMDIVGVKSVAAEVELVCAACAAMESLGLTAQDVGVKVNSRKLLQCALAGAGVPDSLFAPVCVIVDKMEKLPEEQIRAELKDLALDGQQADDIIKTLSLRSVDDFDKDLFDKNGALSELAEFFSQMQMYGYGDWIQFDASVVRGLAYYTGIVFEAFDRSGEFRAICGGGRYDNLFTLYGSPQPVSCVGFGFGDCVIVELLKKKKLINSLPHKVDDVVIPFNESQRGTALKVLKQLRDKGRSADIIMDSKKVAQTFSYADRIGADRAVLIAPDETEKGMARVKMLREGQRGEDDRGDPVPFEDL

Source: ChEMBL document CHEMBL3988442, “University of Dundee, Small-Polar-MMV Screening Library” (2021).

CoaBC: 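Enzyme assay of CoaBC with a phosphate dye (Biomol Green) read at 650 nm. Target: Coenzyme A biosynthesis protein CoaBC, Mycobacterium tuberculosis (UniProt P9WNZ1). Tested at 30 µM. Higher reads as stronger inhibition, judged from the few compounds that gave an IC50. Most strong results did not repeat in a second test. About 67,000 compounds were tested under these conditions; 0.06% (about 40) showed 50% or more at least once.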
LiHisRS: 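Enzyme assay of histidyl-tRNA synthetase; the read-out is not stated. Target: Histidine-tRNA ligase, Leishmania infantum (UniProt A4I591). Compounds at 30 µM. Direction is inferred from retests: higher values go with stronger inhibition. The assay is labelled LdHisRS but filed under L. infantum. Of about 69,000 compounds tested this way, about 410 (0.6%) reached 50% or more in at least one test.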
Leishmania in macrophages: 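Cell assay of Leishmania donovani living inside macrophages; the read-out is not stated. Compounds at 30 µM. Higher reads as stronger inhibition (inferred: compounds with an IC50 in retests scored well above the rest). Size under these conditions: about 69,000 compounds, about 1,000 of them at 50% or above in at least one test.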

Values are the deposited “Percent Effect”, in %.
The record does not define 0% and 100%; most values in the screen are far below 50% and negative numbers occur (in some assays of this library far below -100).
The compounds are a random part of those screened.
Two or more numbers in one place are separate tests of the same structure; such repeats can differ widely.

{"smiles": "O=C1CSC(c2ccsc2)c2sccc2N1", "stereo": "stereo not drawn", "CoaBC": 4.172, "LiHisRS": -3.883, "Leishmania in macrophages": -6.467}
{"smiles": "COCCN1C(=O)CC[C@]12CC[C@@H](NCc1cccnc1OC)CC2.O=C(O)C(F)(F)F.O=C(O)C(F)(F)F", "Leishmania in macrophages": "7.822 & -3.032"}
{"smiles": "COc1cccc(COC(C)C(=O)N(C)Cc2nnc3n2CCC3)c1", "stereo": "stereo not drawn", "CoaBC": -3.828, "LiHisRS": 8.333, "Leishmania in macrophages": -15.17}
{"smiles": "O=C(NC1CCN(c2ncccn2)CC1)c1cccc(-n2ccnc2)c1", "CoaBC": -7.004, "LiHisRS": 11.71, "Leishmania in macrophages": 16.54}
{"smiles": "CCOCC(=O)Nc1cccc(Oc2ccccn2)c1", "CoaBC": 6.612, "LiHisRS": -2.679, "Leishmania in macrophages": 22.68}
{"smiles": "CCOCC(=O)NCC(CC)(OC)c1ccccc1", "stereo": "stereo not drawn", "CoaBC": 2.748, "LiHisRS": 0, "Leishmania in macrophages": "26.34 & 8.172"}
{"smiles": "Cc1ccc(C(=O)N(C)Cc2csc(C)n2)c(=O)[nH]1", "CoaBC": 1.324, "LiHisRS": 20.22, "Leishmania in macrophages": 27.89}
{"smiles": "Cc1cc(C)n(CC(=O)N2CCC(c3cc4cccnc4[nH]3)CC2)n1", "CoaBC": -4.785, "LiHisRS": 2.837, "Leishmania in macrophages": -52.48}
{"smiles": "CCc1nnc2n1CCN(C(=O)c1ccc3cc[nH]c3c1)C2", "CoaBC": 2.041, "LiHisRS": 23.46, "Leishmania in macrophages": 13.14}
{"smiles": "CCOc1ccc(CN[C@@H]2COC[C@H]2c2ccc(F)cc2)cc1.O=C(O)CC(O)(CC(=O)O)C(=O)O", "Leishmania in macrophages": -51.12}
{"smiles": "Fc1ccc(CN2CCc3ncnc(C4CCOC4)c3CC2)cc1", "stereo": "stereo not drawn", "CoaBC": 4.516, "LiHisRS": 16.67}
{"smiles": "O=C1CCC[C@]2(CN(S(=O)(=O)C3CCCCC3)C[C@H]2c2cccnc2)N1", "CoaBC": 10.02, "LiHisRS": 8.511, "Leishmania in macrophages": 9.716}
{"smiles": "CCCN1CCC(NC(=O)c2ccc(F)cc2I)CC1", "CoaBC": 7.595, "LiHisRS": 20.19, "Leishmania in macrophages": 41.86}
{"smiles": "CCNC(=O)NC(=O)CN1CCC(c2cccc(F)c2)C1", "stereo": "stereo not drawn", "CoaBC": 4.943, "LiHisRS": 21.43, "Leishmania in macrophages": 17.38}
{"smiles": "CCS(=O)(=O)N1CCC2(CC1)CN(CC1CCOC1)c1ccccc12.O=C(O)C(F)(F)F", "stereo": "stereo not drawn", "Leishmania in macrophages": 11.07}
{"smiles": "CCC(O)CNc1ccc(-c2nc(CC(C)C)no2)cn1", "stereo": "stereo not drawn", "CoaBC": -0.6098, "LiHisRS": 10.99, "Leishmania in macrophages": 15.08}
{"smiles": "CC1CCCCN1c1nc2c(c(=O)[nH]1)CCN(Cc1ccccc1F)C2", "stereo": "stereo not drawn", "CoaBC": 1.942, "LiHisRS": 10.14, "Leishmania in macrophages": "8.638 & 0"}
{"smiles": "CC(C)n1cc(CN2CCCN(C(=O)C(C)n3cncn3)CC2)cn1", "stereo": "stereo not drawn", "CoaBC": 0.8772, "LiHisRS": 8.929, "Leishmania in macrophages": 21.4}
{"smiles": "Cc1c(C(=O)NC2(C#N)CCSC2)cnn1-c1ccccc1Cl", "stereo": "stereo not drawn", "CoaBC": 6.925, "LiHisRS": 23.53, "Leishmania in macrophages": 6.439}